Like-named read-outs stand apart in the source and are kept apart here. These are yes or no findings as the source states them, for the method shown. For some assays here: In cells and extracts the contact can be indirect. Some results given as binding are weak or reduced against the parent protein; the word gives no strength.
Legend:
GST-NudC (human) = GST-NudC (human) (UniProt Q9Y266); test: pull-down; purified GST or GST-NudC incubated with RPE-1 cell lysates; immunoblotting with anti-filamin A antibody; only the target purified
Flag-NudC (human) = Flag-NudC (human) (UniProt Q9Y266); test: co-IP; RPE-1 cells transfected with a tagged protein; extracts in TBSN buffer (20 mM Tris pH 8.0, 150 mM NaCl, 0.5% NP-40, 5 mM EGTA, 1.5 mM EDTA); IP with anti-Flag or anti-Myc antibodies, western blotting of the endogenous partner
[1] = biological target: GST-filamin A fragment F7 (repeats 20-23, 2132-2516 aa) (UniProt P21333); test: pull-down; purified GST-tagged filamin A fragments incubated with purified His-NudC; immunoblotting; both purified
[2] = biological target: GST-filamin A fragment F8 (repeat 24, 2517-2648 aa) (UniProt P21333); test: as above
[3] = biological target: Filamin A, endogenous in RPE-1 cells (human (endogenous in RPE-1)) (UniProt P21333); test: co-IP; total lysates of untransfected cells (RPE-1) in TBSN buffer; IP of endogenous proteins with the indicated antibodies or IgG, western blotting
Myc-filamin A = Myc-filamin A (UniProt P21333); test: co-IP; RPE-1 cells transfected with a tagged protein; extracts in TBSN buffer (20 mM Tris pH 8.0, 150 mM NaCl, 0.5% NP-40, 5 mM EGTA, 1.5 mM EDTA); IP with anti-Flag or anti-Myc antibodies, western blotting of the endogenous partner
[4] = biological target: Filamin A, endogenous in RPE-1 cells (human (endogenous in RPE-1)) (UniProt P21333); test: co-IP; total lysates of untransfected cells (RPE-1) in TBSN buffer; IP of endogenous proteins with the indicated antibodies or IgG, western blotting; remark: listed apart in the source

Chains of the proteins cited; added tags and fusions are not shown. Lines headed by an entry give the natural chain unless they say otherwise; changes in a name come on top. Residues count along the entry.
UniProt Q9Y266: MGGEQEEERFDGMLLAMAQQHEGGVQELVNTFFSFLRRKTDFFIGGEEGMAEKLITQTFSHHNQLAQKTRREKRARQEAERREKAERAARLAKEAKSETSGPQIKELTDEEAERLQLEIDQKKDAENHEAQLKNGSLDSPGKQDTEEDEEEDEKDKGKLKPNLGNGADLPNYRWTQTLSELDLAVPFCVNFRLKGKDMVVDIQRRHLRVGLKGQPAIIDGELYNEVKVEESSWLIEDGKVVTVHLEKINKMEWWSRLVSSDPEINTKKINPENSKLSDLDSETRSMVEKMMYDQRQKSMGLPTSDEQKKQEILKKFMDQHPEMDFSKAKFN
UniProt P21333: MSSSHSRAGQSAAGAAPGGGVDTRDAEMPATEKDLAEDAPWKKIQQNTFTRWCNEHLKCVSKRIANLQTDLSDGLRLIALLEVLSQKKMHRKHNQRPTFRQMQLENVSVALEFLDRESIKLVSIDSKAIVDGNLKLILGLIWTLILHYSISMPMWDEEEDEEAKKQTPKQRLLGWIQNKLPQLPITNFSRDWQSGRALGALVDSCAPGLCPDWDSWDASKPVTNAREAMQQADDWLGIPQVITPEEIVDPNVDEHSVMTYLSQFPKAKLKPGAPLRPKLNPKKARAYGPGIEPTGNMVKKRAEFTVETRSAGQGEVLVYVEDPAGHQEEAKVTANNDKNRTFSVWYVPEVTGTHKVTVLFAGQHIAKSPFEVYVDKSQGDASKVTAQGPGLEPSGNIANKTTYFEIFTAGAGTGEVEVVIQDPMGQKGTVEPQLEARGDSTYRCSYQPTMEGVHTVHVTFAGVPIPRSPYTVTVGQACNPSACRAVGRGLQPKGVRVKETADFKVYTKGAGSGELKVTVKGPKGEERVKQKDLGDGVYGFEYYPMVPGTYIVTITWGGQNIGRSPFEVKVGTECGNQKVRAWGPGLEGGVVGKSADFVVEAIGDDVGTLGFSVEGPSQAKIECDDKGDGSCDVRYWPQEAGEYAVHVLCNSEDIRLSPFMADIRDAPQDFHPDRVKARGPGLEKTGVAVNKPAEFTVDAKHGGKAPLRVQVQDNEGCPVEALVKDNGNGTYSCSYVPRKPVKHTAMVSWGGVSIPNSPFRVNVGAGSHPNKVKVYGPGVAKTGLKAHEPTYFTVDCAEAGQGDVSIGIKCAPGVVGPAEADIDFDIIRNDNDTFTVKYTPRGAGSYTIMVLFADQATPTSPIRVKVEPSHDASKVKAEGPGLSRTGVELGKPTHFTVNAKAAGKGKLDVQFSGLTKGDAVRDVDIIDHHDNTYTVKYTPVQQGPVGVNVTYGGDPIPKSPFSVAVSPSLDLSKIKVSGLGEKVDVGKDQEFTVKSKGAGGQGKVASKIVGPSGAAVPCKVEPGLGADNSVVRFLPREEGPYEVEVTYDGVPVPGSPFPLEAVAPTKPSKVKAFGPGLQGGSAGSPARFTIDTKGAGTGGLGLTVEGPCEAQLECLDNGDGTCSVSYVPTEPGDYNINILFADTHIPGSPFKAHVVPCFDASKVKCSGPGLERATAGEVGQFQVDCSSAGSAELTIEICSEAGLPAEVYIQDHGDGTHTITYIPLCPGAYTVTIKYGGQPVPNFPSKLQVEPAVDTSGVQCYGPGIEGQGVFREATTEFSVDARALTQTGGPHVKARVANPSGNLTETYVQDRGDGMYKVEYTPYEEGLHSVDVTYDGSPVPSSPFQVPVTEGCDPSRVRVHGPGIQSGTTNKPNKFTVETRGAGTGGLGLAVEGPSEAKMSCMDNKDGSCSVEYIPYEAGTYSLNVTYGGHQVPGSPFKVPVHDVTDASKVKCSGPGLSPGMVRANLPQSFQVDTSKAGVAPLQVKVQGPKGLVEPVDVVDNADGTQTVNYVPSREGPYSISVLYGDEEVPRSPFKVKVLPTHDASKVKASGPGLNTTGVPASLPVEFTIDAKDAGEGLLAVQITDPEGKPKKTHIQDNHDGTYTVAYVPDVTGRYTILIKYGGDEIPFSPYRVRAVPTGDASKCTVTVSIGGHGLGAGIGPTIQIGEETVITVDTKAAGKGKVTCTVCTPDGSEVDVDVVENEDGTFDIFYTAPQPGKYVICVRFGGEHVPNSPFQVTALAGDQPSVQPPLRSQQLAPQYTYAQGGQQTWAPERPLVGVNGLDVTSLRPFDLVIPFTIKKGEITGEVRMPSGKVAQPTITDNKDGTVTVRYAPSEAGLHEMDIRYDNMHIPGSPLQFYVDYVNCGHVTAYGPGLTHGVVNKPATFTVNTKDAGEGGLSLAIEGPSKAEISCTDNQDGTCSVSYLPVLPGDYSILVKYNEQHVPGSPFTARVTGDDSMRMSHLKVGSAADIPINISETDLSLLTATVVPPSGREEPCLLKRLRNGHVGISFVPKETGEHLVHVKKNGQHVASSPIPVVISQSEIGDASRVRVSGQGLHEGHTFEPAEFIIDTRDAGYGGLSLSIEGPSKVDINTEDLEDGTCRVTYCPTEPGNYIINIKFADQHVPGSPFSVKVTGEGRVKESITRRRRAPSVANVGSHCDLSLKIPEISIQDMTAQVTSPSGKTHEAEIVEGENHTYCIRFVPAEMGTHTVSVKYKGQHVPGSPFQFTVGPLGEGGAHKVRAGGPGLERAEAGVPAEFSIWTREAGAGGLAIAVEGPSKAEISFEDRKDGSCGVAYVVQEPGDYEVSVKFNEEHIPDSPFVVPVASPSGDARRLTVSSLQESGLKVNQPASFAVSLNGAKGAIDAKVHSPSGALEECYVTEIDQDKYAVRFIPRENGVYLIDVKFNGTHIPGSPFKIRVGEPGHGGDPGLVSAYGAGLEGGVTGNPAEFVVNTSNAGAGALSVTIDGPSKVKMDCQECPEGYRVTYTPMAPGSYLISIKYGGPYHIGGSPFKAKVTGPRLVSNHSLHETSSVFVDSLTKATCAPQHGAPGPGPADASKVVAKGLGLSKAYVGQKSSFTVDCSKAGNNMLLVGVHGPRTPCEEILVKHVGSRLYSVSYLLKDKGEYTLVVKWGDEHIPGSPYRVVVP
GST-filamin A fragment F7 (repeats 20-23, 2132-2516 aa): residues 2132-2516 of P21333
GST-filamin A fragment F8 (repeat 24, 2517-2648 aa): residues 2517-2647 of P21333

Molecule: Filamin A, endogenous in RPE-1 cells (from UniProt P21333 1-2647)
- binding (GST-NudC (human)): binds
- binding (Flag-NudC (human)): binds

Molecule: His-NudC (from UniProt Q9Y266 1-331)
- binding [1]: binds
- binding [2]: binds

Molecule: Nuclear distribution gene C (NudC), endogenous in RPE-1 cells (from UniProt Q9Y266 1-331)
- binding [3]: binds
- binding (Myc-filamin A): binds

B1: NudC-like protein (NudCL), endogenous (protein, UniProt Q8IVD9 1-361)
chain: METGAAELYDQALLGILQHVGNVQDFLRVLFGFLYRKTDFYRLLRHPSDRMGFPPGAAQALVLQVFKTFDHMARQDDEKRRQELEEKIRRKEEEEAKTVSAAAAEKEPVPVPVQEIEIDSTTELDGHQEVEKVQPPGPVKEMAHGSQEAEAPGAVAGAAEVPREPPILPRIQEQFQKNPDSYNGAVRENYTWSQDYTDLEVRVPVPKHVVKGKQVSVALSSSSIRVAMLEENGERVLMEGKLTHKINTESSLWSLEPGKCVLVNLSKVGEYWWNAILEGEEPIDIDKINKERSMATVDEEEQAVLDRLTFDYHQKLQGKPQSHELKVHEMLKKGWDAEGSPFRGQRFDPAMFNISPGAVQF
- binding [4]: binds

B2: NudC-like protein 2 (NudCL2), endogenous (protein, UniProt Q8WVJ2 1-157)
chain: MSAPFEERSGVVPCGTPWGQWYQTLEEVFIEVQVPPGTRAQDIQCGLQSRHVALSVGGREILKGKLFDSTIADEGTWTLEDRKMVRIVLTKTKRDAANCWTSLLESEYAADPWVQDQMQRKLTLERFQKENPGFDFSGAEISGNYTKGGPDFSNLEK
- binding [4]: binds

Reference: publication PMC8273881
